Source: article PMC10340588
No constants are given. Whether binding was seen depends on the method and setting. In cells and extracts the contact can be indirect. Some binding calls cover weakened binding; strength is not graded here.

Legend:
[1] = target: p100AmotL2 (endogenous in MDCK cells) (dog (endogenous in MDCK)); assay: co-IP; MDCK p60AmotL2 cells with Dox (p60AmotL2 induced); p100AmotL2 precipitated with p100-specific antibody and protein G Sepharose, overnight at 4 °C; lysis buffer 50 mM Hepes, 150 mM NaCl, 1.5 mM MgCl2, 1 mM EGTA, 10% glycerol, 1% TritonX-100; Western blot
[2] = target: p100AmotL2 (endogenous in MDCK cells) (dog (endogenous in MDCK)); assay: co-IP; MDCK p60AmotL2 cells without Dox (p60AmotL2 not induced); p100AmotL2 precipitated with p100-specific antibody and protein G Sepharose, overnight at 4 °C; lysis buffer 50 mM Hepes, 150 mM NaCl, 1.5 mM MgCl2, 1 mM EGTA, 10% glycerol, 1% TritonX-100; Western blot

- binding [2]: binds
B1: β-catenin (endogenous in MDCK cells) (protein, UniProt B6V8E6 1-781)
chain: MATQADLMELDMAMEPDRKAAVSHWQQQSYLDSGIHSGATTTAPSLSGKGNPEEEDVDTTQVLYEWEQGFSQSFTQEQVADIDGQYAMTRAQRVRAAMFPETLDEGMQIPSTQFDAAHPTNVQRLAEPSQMLKHAVVNLINYQDDAELATRAIPELTKLLNDEDQVVVNKAAVMVHQLSKKEASRHAIMRSPQMVSAIVRTMQNTNDVETARCTAGTLHNLSHHREGLLAIFKSGGIPALVKMLGSPVDSVLFYAITTLHNLLLHQEGAKMAVRLAGGLQKMVALLNKTNVKFLAITTDCLQILAYGNQESKLIILASGGPQALVNIMRTYTYEKLLWTTSRVLKVLSVCSSNKPAIVEAGGMQALGLHLTDPSQRLVQNCLWTLRNLSDAATKQEGMEGLLGTLVQLLGSDDINVVTCAAGILSNLTCNNYKNKMMVCQVGGIEALVRTVLRAGDREDITEPAICALRHLTSRHQEAEMAQNAVRLHYGLPVVVKLLHPPSHWPLIKATVGLIRNLALCPANHAPLREQGAIPRLVQLLVRAHQDTQRRTSMGGTQQQFVEGVRMEEIVEGCTGALHILARDVHNRIVIRGLNTIPLFVQLLYSPIENIQRVAAGVLCELAQDKEAAEAIEAEGATAPLTELLHSRNEGVATYAAAVLFRMSEDKPQDYKKRLSVELTSSLFRTEPMAWNETADLGLDIGAQGEPLGYRQDDPSYRSFHSGGYGQDALGMDPMMEHEMGGHHPGADYPVDGLPDLGHAQDLMDGLPPGDSNQLAWFDTDL
- binding [1]: no binding (condition: with p60AmotL2 induced (Dox))
